Assay [1] deals with huNABA-avi-his (hybrid protein N-A1-B3-A2: N and A1 domains of human BGP, B3 domain of human CEA, A2 domain of BGP, with precision protease site, avi tag and (His)6 tag), biotinylated (human). Nature of the assay: Proteon SPR, antibody analyte on biotinylated NABA (Neutravidin chip); concentrations from paragraph 235.
For assay [2] the target is unchanged. Nature of the assay: condition: analyte concentrations of 100, 50, 25, 12.5, 6.25, and 0 nM; SPR (Proteon), antibody as analyte on biotinylated NABA immobilized on a Neutravidin-coated chip.

No constants are given. Whether binding was seen depends on the method and setting.

B1: antibody with heavy chain CH7A (W95Y) and light chain 2F1 (antibody, V domains shown)
VH: QVQLVQSGSELKKPGASVKVSCKASGYTFTEFGMNWVRQAPGQGLEWMGWINTKTGEATYVEEFKGRFVFSLDTSVSTAYLQISSLKAEDTAVYYCARYDFYDYVEAMDYWGQGTTVTVSS
VL: DIQMTQSPSSLSASVGDRVTITCKASAAVGTYVAWYQQKPGKAPKLLIYSASYRKRGVPSRFSGSGSGTDFTLTISSLQPEDFATYYCHQYYTYPLFTFGQGTKLEIKR
As to B1, the binding result is on record as “no binding (tested: 100 nM)” in assay [1] and “no binding” in assay [2].

The values above are taken from patent US20230365711A1 (Hoffmann-La Roche, published 2023).
